## Library screen at single concentrations

Chains of the proteins cited; added tags and fusions are not shown. Residues count along the entry.
UniProt A4I591, 1-473: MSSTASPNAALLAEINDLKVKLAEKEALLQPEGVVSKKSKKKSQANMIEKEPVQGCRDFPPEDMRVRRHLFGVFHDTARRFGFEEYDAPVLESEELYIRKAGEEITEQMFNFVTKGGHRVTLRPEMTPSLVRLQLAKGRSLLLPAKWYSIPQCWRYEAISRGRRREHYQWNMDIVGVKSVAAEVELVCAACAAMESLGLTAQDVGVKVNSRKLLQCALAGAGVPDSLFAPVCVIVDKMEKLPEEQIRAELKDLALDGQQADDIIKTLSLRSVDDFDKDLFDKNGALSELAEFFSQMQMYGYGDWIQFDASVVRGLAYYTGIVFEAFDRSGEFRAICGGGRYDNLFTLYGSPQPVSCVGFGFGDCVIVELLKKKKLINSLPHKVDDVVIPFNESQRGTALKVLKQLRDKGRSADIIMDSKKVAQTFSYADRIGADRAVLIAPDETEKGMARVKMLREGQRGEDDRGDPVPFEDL
UniProt P9WFT3, whole entry: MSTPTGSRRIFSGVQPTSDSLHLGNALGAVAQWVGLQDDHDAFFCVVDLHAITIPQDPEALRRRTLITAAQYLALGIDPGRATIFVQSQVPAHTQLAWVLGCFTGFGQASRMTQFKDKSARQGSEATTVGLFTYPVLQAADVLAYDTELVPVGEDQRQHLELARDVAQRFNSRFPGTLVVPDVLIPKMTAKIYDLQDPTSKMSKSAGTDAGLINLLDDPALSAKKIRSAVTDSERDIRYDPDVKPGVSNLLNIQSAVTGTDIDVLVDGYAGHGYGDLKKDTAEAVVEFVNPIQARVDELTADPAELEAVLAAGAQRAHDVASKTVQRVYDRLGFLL

Data taken from ChEMBL document CHEMBL3988442, “University of Dundee, Small-Polar-MMV Screening Library” (2021).

LiHisRS: 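Histidine-tRNA ligase, Leishmania infantum (UniProt A4I591). Enzyme assay of histidyl-tRNA synthetase; the read-out is not stated. Compounds at 30 µM. Higher reads as stronger inhibition (inferred: compounds with an IC50 in retests scored well above the rest). The assay is labelled LdHisRS but filed under L. infantum. Of about 69,000 compounds tested this way, about 410 (0.6%) reached 50% or more in at least one test.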
MtTrpRS: 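Enzyme assay of tryptophanyl-tRNA synthetase; the read-out is not stated. Target: Tryptophan-tRNA ligase, Mycobacterium tuberculosis (UniProt P9WFT3). Concentration: 10 µM. Direction is not recorded; retested compounds ran higher, which suggests that high means inhibition. Of about 65,000 compounds tested this way, about 64 (0.098%) reached 50% or more in at least one test.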

The filed quantity is “Percent Effect” (%). The record does not define 0% and 100%; most values in the screen are far below 50% and negative numbers occur (in some assays of this library far below -100). Compounds were drawn at random from those tested, without regard to their results. A dash means the value is not listed here; it may have been measured.

SMILES,LiHisRS,MtTrpRS
COc1cc(OC)c(C2CC(=O)Oc3cc(C)[nH]c(=O)c32)cc1OC (centres undefined),17.95%,0.5882%
Cc1c(C(N)=O)sc2nc(C(F)(F)F)ccc12,13.33%,18.17%
CN1CC2(CCN(C(=O)c3ccc4c(=O)n(C)cnc4c3)CC2)CC1=O,5.208%,-5.578%
O=C1CCNc2cc3c(cc2CN1CC1CC1)OCO3,28.87%,-
CCC(C(=O)Nc1ccc2c(C)n[nH]c2c1)N1CCCC1=O (centres undefined),-2.632%,-3.291%
O=C(c1ccccn1)N1CCc2ncnc(-c3ccncc3)c2CC1,9.434%,-
COC1CCN(C(=O)c2cc(-c3ccc(Cl)cc3)on2)CC1,15.09%,-2.968%
Clc1ccc(CN2CCOC[C@H](Oc3cccnc3)C2)cc1,28.38%,1.593%
CCc1nnc2n1CCN(c1nc(C)cc(N(C)C)n1)C2,15.5%,2.053%
CCN(Cc1ccncc1)C(=O)c1cn(CC2CCCNC2)nn1 (centres undefined),4%,-3.665%
CNC(=O)Cc1coc(-c2ccc(F)cc2)n1,6.122%,1.646%
Cc1ccnc2c1NC(=O)CN2C(=O)CCc1ccccc1,15.5%,5.829%
Cc1ccc(C(=O)NS(=O)(=O)Cc2ccon2)c(C)c1,16.67%,2.315%
Cc1nc(CN2CCC3(CC2)CC(c2cccnc2)C(=O)N3C)cs1 (centres undefined),22.64%,-
COc1ccnc(N2CCN(Cc3ncc(-c4ccccc4)o3)CC2)n1,-9.091%,-6.464%
CCNC(=O)N1CCCC(C(=O)c2cccc(OC(C)C)c2)C1 (centres undefined),-5.66%,-2.143%
CC(C)C(CNC(=O)Nc1cn[nH]c1)N1CCOCC1 (centres undefined),11.5%,2.508%
Cc1ccc(OC2CCN(C(=O)C(C)Cn3cccn3)CC2)cc1 (centres undefined),17.09%,-5.782%
COc1ccccc1C(=O)N1CCN(CCc2scnc2C)CC1,0%,0.516%
O=C(CCc1ccccc1F)NS(=O)(=O)c1ccc2c(c1)OCCO2,-4.348%,25.56%
Cc1cnn(CCNCc2c(C)nn(-c3ccccc3)c2C)c1,10.17%,0.8675%
CCNc1cc2c(nn1)CCN(C(=O)CC1CCCCC1)C2,23.6%,1.023%
CCn1ccc(NC(=O)c2cc(C)on2)n1,7.692%,-0.712%
CC(C)(C)n1ncc2c(=O)[nH]c(N3CCC4(CCCCC4)C3)nc21,10.96%,-2.974%
CC(C)n1ccnc1CN1C(=O)OC[C@@H]1c1ccccc1,15.38%,-2.7%
Cc1oc(CN(C)C(=O)c2ccc(Br)cc2)cc1C(=O)O,3.419%,-6.21%
CC(C)Nc1ncccc1C(=O)NC1CC(=O)N(CC(F)(F)F)C1 (centres undefined),6.667%,-3.786%
Cc1nccn1-c1ccc(CNC(=O)c2ccc([S+](C)[O-])cc2)cn1 (centres undefined),9.333%,5.04%
N#Cc1ccc(N2CCCC2Cn2cccn2)nc1 (centres undefined),18.75%,1.874%
Cc1nc(C)c(S(=O)(=O)NC(=O)c2cccs2)s1,-23.81%,-3.744%
c1ccc(Cc2nnc(CN3CCCC3Cn3cccn3)o2)cc1 (centres undefined),7.143%,-8.687%
O=C(c1ccccn1)N1CCCC(c2nccn2CC2CCC2)C1 (centres undefined),3.846%,-0.9266%
Cc1n[nH]c(C)c1CC(=O)N1CCC2(CC1)CN(C)CCN2C,12.9%,1.837%
O=C(Nc1ccccn1)C1CCN(C(=O)COc2ccccc2F)C1 (centres undefined),-20%,0.2898%
CCN(Cc1noc(C(C)C)n1)Cc1ccc(C#N)cc1F,10.17%,-2.287%
Cc1noc(C)c1C(=O)N1CCC2(CCc3ccccc3C(=O)N2)C1 (centres undefined),4.317%,-4.557%
Cc1nn(C)c(N(C)C)c1CNCCC(=O)NC1CCCCC1,4.464%,-8.584%
O=C(CSCC1CC1)N1CCCC2(CCC(=O)N(CC3CC3)C2)C1 (centres undefined),12.24%,-0.5485%
CN(Cc1ccccc1)C(=O)CCS(=O)(=O)c1ccc2c(c1)OCCO2,-7.407%,2.571%
CN1CCN(Cc2cnc3n2CCN(C(=O)c2ccncc2)C3)CC1,0%,-2.387%
Cc1cc(C)n(CC(C)NCCN2CCc3ccccc32)n1 (centres undefined),25.71%,3.183%
COC[C@@H]1CCCN1C(=O)c1cc(-c2cccc(OC)c2)n[nH]1,19.17%,1.032%
CCc1ccc(C(=O)N2CCCC(CNS(C)(=O)=O)C2)o1 (centres undefined),9.649%,-3.531%
CCC[C@@H]1CN(Cc2ccccc2OC(F)(F)F)C[C@H]1NC(C)=O,9.756%,-0.297%
COCC(=O)N1CC[C@H]2OCC[C@@]2(c2nc(C)no2)C1,11.11%,3.067%
CCS(=O)(=O)N[C@H]1CN(Cc2noc(COC)n2)C[C@@H]1C1CC1,21.51%,6.083%
N#Cc1c(Cl)nsc1NCC1(c2ccccc2)CCC1,14.91%,-0.3112%
CN1CCN(C(=O)COCc2nc(-c3ccncc3)no2)CC1,-7.08%,-0.1434%